The values below come from article PMC9813592, “A genetic screen in Arabidopsis reveals the identical roles for RBP45d and PRP39a in 5’ cryptic splice site selection”.

For the series, the target named is T1, RBP45d (His-RBP45d) (UniProt Q8VXZ9).
T1 sequence (looked up, limits assumed): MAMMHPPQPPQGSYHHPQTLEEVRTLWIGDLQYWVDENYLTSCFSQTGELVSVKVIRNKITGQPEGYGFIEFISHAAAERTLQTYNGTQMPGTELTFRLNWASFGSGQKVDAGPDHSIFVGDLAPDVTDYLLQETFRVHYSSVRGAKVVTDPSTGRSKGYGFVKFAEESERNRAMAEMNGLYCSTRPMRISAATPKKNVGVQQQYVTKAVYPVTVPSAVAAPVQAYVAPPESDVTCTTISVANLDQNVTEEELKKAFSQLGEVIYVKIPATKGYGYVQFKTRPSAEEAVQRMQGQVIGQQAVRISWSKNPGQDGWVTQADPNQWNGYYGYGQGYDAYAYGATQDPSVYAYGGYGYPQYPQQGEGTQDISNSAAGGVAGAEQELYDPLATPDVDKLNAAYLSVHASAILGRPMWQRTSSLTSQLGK
In words: competition with a labelled probe. The following applies: unlabeled vs Cy5-SOT5-IN7; REMSA; unlabeled competitor up to at least 6 uM; recombinant protein; protein details: His (pET51b).

For at least one entry, the source does not settle the construct or the ends of the probe. The comparison behind a weaker result is the experiment's own reference, which may not be listed here. Protein sequences can lack the tags named with them.

Regarding “CUCAAUAUGGCAAACCGGGUAAAUC [SOT5-IN7-M3-NL]”, the binding result was “binds more weakly”.
